{
  "source": "patent US20240390404A1",
  "about": "“ANTI-HUMAN NOROVIRUS AGENT” (KEIO UNIVERSITY, priority 2018, published 2024)",
  "system": "human norovirus GII.4 (K2017 strain)",
  "assay": "Human norovirus proliferation inhibition in 2D organoid after agent pre-treatment, GII.4 strain",
  "type": "cell-based",
  "settings": "agent 1 μM, 3 days treatment before infection",
  "description": "Feces of a human norovirus-infected patent contains a large amount of infectious human norovirus. Thus, the feces of a human norovirus-infected patient is suspended in distilled water or the like to a final concentration of about 10%, to thereby prepare a “10% feces suspension.” The 10% feces suspension is about 10-fold diluted with an ENRA medium. The diluted suspension is added to each of the aforementioned wells having the 2D organoid (5 μL/well) and subjected to incubation for about 3 hours, to thereby proliferate human norovirus. As a result of verification, it has been confirmed that human norovirus proliferates to about 100,000 times the initial count through the culture system employing the 2D organoid.\nIn the Example, there were tested strains of human norovirus obtained from feces of human norovirus infection patients through the aforementioned procedure and stocked before the test. […]\nThe effect of 2fp-fucose treatment on proliferation of human norovirus was investigated for each lineage of norovirus. […] 4, and the viral proliferation amount was determined on days 3 and 6 after infection (FIG. 4). […]\nThe 2D organoid was treated with an agent for 3 days. […] Subsequently, the thus-treated 2D organoid was infected with human norovirus (the norovirus strain GII.4), and the proliferation inhibition effect was determined (FIG. 6). […]",
  "note": "At least one compound was matched to its structure with a doubt left.",
  "data": [
    {"smiles": "Nc1ccn([C@@H]2CS[C@H](CO)O2)c(=O)n1", "note": "[Lamivudine, reference compound]", "values": [
      {"measurement": "viral RNA titer from day 0 to day 7 (proliferation inhibition effect)", "value": "no effect of inhibiting proliferation of human norovirus"}
    ]}
  ]
}
